PubChem BioAssay AID1053208 – Peter MacCallum Cancer Centre | 2014

- Aim: 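Genes whose silencing cuts survival of bone tumour cells only with doxorubicin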 (primary screen)
- Cells: mouse osteosarcoma cells, early-passage culture from an engineered mouse model of fibroblastic bone tumour
- Reagent: siRNA pool against mouse genes, 40 nM
- Time to read-out: about 120 h (48 h before drug, then 72 h with drug)
- Conditions: doxorubicin 100 nM for 72 h, roughly 30-40% inhibitory dose
- Detection: 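Viability read as ATP luminescence after 72 h of 100 nM doxorubicin or none, duplicate wells averaged, scaled to non-targeting siRNA, then expressed as robust z-scores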
- Direction: viability z-score with doxorubicin and doxorubicin viability vs non-targeting: higher = more viable cells under doxorubicin; viability z-score without drug: higher = more viable cells with knock-down alone; z-score of drug to no-drug ratio: higher = less drug sensitisation by knock-down
- Active means: 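Called active if knock-down leaves viability unchanged without drug (z within -2 to 2) but lowers it with doxorubicin (z at or under -2)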
Here is one part, drawn at random, of about 17,000 reagents. 788 of all reagents (4.7%) were called active. 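Calls rest on z-score classes alone; an extra cut-off of viability at most 70% of control was not applied to them.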 Reagent sequences are not shown.

target gene	combined z-score class	viability z-score with doxorubicin	viability z-score without drug	z-score of drug to no-drug ratio	doxorubicin viability vs non-targeting	activity call
Ccr4 (C-C motif chemokine receptor 4)	low cell count with and without drug	-2.02	-2.02	-0.67	0.76	inactive
Rbbp8nl (RBBP8 N-terminal like)	no change with or without drug	0.34	-0.17	0.56	0.97	inactive
Bphl (biphenyl hydrolase like)	no change with or without drug	0.67	-0.84	1.46	1	inactive
Rictor (RPTOR independent companion of MTOR, complex 2)	no change with or without drug	0	0.17	0	0.94	inactive
Or10p22 (olfactory receptor family 10 subfamily P member 22)	high cell count without drug only	0	2.36	-1.35	0.94	inactive
Mbp (myelin basic protein)	high cell count with doxorubicin only	2.36	-0.34	2.92	1.15	inactive
Cers1 (ceramide synthase 1)	no change with or without drug	-0.11	0.51	-0.34	0.93	inactive
Rhot1 (ras homolog family member T1)	high cell count with and without drug	3.71	2.7	1.8	1.27	inactive
Dctn5 (dynactin 5)	no change with or without drug	1.35	1.18	0.67	1.06	inactive
Slc25a1	no change with or without drug	0	-1.18	1.01	0.94	inactive
Lars2 (leucyl-tRNA synthetase, mitochondrial)	no change with or without drug	0	0.34	-0.11	0.94	inactive
Rhbdl1 (rhomboid like 1)	low cell count with doxorubicin only	-4.27	-1.52	-3.71	0.56	active
2810025M15Rik (RIKEN cDNA 2810025M15 gene)	no change with or without drug	-0.22	0	-0.11	0.92	inactive
Ifnk (interferon kappa)	no change with or without drug	0.22	-0.17	0.45	0.96	inactive
P4htm (prolyl 4-hydroxylase, transmembrane (endoplasmic reticulum))	low cell count with and without drug	-2.7	-2.53	-1.24	0.7	inactive
Pthlh (parathyroid hormone-like peptide)	no change with or without drug	1.12	1.85	0	1.04	inactive
Hnrnpu (heterogeneous nuclear ribonucleoprotein U)	no change with or without drug	0.34	-0.51	0.79	0.97	inactive
Nucleolin (nucleolin multifunctional protein)	low cell count without drug only	-1.8	-2.19	-0.34	0.78	inactive
Gsx2 (GS homeobox 2)	no change with or without drug	-1.8	-0.51	-1.46	0.78	inactive
Polr3d (polymerase (RNA) III (DNA directed) polypeptide D)	no change with or without drug	1.35	1.85	0.22	1.06	inactive
Nexn (nexilin)	no change with or without drug	0.45	1.18	-0.22	0.98	inactive
Helt (helt bHLH transcription factor)	no change with or without drug	1.35	1.18	0.67	1.06	inactive
Sh2b2 (SH2B adaptor protein 2)	no change with or without drug	-0.56	-1.01	0.22	0.89	inactive
Itgb7 (integrin beta 7)	no change with or without drug	-0.79	1.01	-1.35	0.87	inactive
Tmed10 (transmembrane p24 trafficking protein 10)	no change with or without drug	-1.8	-0.51	-1.46	0.78	inactive
Mnat1 (menage a trois 1)	no change with or without drug	1.46	1.01	0.9	1.07	inactive
Ncapg2 (non-SMC condensin II complex, subunit G2)	no change with or without drug	0.34	-0.17	0.56	0.97	inactive
Grip1 (glutamate receptor interacting protein 1)	no change with or without drug	-1.46	-0.34	-1.24	0.81	inactive
Eif2ak4 (eukaryotic translation initiation factor 2 alpha kinase 4)	low cell count with doxorubicin only	-2.25	-0.17	-2.14	0.74	active
Enpp3 (ectonucleotide pyrophosphatase/phosphodiesterase 3)	no change with or without drug	-0.34	0.51	-0.56	0.91	inactive
Khsrp (KH-type splicing regulatory protein)	no change with or without drug	0.56	0.84	0.11	0.99	inactive
Mfsd6l (major facilitator superfamily domain containing 6-like)	no change with or without drug	0.22	0.17	0.22	0.96	inactive
Homer1 (homer scaffolding protein 1)	no change with or without drug	0.45	0.84	0	0.98	inactive
Stx4a (syntaxin 4A (placental))	no change with or without drug	-0.11	-0.51	0.34	0.93	inactive

Ordered by “doxorubicin viability vs non-targeting” (highest first): some entries from above
target gene	combined z-score class	viability z-score with doxorubicin	viability z-score without drug	z-score of drug to no-drug ratio	doxorubicin viability vs non-targeting	activity call
Mnat1 (menage a trois 1)	no change with or without drug	1.46	1.01	0.9	1.07	inactive
Itgb7 (integrin beta 7)	no change with or without drug	-0.79	1.01	-1.35	0.87	inactive
Tmed10 (transmembrane p24 trafficking protein 10)	no change with or without drug	-1.8	-0.51	-1.46	0.78	inactive
